Measured values: the M2OR odorant receptor database
The entries are a selection whose mix differs from that of the whole data set. Calls are pooled over several reports, among them a noisy single-well screen. This is one part of the list.

Legend:
Settings in all cases: stereoisomer not certain
OR4L1 = tested on: T1, OR4L1
T1 sequence (whole entry): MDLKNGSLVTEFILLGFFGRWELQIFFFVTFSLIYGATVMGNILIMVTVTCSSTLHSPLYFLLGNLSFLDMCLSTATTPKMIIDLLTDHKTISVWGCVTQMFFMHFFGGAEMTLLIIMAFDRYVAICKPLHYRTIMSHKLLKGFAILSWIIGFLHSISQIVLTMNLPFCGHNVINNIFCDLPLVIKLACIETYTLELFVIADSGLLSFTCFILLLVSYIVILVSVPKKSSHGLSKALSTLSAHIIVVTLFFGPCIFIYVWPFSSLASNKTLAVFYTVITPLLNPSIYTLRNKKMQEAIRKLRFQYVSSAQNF
In short: (§1)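 Whether a receptor–molecule pair is responsive (active) rests on the original authors' judgment that its measured signal was statistically different from baseline. Pairs without that judgment are non-responsive (inactive). Sources used varied assay methods, commonly transient luciferase assays in mammalian cell lines.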

OR4M1 (Homo sapiens) = biological target: T2, OR4M1 (Homo sapiens) (UniProt Q8NGD0)
T2 sequence (whole entry): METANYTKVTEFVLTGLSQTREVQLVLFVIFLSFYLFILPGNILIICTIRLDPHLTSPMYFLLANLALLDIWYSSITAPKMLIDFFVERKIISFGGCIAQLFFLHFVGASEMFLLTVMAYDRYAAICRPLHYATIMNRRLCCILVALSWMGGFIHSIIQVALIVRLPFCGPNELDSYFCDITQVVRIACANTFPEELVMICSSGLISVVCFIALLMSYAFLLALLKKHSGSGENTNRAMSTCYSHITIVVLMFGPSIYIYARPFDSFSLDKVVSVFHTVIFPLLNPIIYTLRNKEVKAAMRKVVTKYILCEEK
In short: as §1

OR4N2 (Homo sapiens) = biological target: T3, OR4N2 (Homo sapiens) (UniProt Q8NGD1)
T3 sequence (whole entry): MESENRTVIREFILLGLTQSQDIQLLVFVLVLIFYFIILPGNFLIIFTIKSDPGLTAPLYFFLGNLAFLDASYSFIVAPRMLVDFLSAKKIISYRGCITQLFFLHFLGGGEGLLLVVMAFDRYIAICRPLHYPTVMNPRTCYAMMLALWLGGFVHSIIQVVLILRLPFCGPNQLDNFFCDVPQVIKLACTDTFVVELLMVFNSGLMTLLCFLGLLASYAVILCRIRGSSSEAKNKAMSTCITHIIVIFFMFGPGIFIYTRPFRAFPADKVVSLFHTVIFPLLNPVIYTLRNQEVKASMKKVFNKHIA
In short: as §1

OR4N4 (Homo sapiens) = biological target: T4, OR4N4 (Homo sapiens) (UniProt Q8N0Y3)
T4 sequence (whole entry): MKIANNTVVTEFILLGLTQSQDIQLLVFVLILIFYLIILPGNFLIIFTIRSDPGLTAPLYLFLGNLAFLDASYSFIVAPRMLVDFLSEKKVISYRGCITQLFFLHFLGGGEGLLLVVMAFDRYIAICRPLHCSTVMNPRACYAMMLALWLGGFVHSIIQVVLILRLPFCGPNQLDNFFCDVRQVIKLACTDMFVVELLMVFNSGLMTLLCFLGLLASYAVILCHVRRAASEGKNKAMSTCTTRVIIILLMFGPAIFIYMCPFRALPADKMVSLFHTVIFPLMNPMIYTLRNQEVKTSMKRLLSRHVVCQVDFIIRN
In short: as §1

OR4N5 (Homo sapiens) = biological target: T5, OR4N5 (Homo sapiens) (UniProt Q8IXE1)
T5 sequence (whole entry): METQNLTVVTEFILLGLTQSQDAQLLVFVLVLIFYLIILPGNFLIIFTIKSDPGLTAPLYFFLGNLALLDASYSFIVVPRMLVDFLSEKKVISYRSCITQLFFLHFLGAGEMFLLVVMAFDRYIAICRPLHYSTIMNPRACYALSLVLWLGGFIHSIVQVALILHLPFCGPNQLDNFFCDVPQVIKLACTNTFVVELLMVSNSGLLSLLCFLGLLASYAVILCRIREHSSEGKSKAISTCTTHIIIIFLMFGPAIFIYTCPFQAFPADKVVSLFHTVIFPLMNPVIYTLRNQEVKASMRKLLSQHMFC
In short: as §1

OR4P4 [1] = tested on: T6, OR4P4
T6 sequence (whole entry): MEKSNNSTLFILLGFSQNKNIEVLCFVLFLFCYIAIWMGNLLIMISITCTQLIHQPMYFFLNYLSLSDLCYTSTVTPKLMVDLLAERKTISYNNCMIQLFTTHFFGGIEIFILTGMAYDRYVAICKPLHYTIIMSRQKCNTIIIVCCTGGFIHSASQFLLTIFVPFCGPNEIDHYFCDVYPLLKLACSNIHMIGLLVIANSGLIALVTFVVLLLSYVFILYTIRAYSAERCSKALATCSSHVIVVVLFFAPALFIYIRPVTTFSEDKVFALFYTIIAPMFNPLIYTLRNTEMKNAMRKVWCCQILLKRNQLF
In short: as §1

OR4P4 [2] = tested on: T7, OR4P4; remark: listed apart in the source
T7 sequence (whole entry): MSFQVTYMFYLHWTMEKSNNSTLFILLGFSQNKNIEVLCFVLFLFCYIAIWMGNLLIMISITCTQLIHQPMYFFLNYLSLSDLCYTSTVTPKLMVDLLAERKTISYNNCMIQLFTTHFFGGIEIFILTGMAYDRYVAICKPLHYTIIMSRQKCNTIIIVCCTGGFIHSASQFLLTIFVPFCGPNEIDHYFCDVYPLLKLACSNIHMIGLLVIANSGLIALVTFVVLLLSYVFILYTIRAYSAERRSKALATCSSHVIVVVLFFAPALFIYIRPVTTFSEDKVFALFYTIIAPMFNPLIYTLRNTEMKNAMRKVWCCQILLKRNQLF
In short: as §1

OR4Q3 (Homo sapiens) = biological target: T8, OR4Q3 (Homo sapiens) (UniProt Q8NH05)
T8 sequence (whole entry): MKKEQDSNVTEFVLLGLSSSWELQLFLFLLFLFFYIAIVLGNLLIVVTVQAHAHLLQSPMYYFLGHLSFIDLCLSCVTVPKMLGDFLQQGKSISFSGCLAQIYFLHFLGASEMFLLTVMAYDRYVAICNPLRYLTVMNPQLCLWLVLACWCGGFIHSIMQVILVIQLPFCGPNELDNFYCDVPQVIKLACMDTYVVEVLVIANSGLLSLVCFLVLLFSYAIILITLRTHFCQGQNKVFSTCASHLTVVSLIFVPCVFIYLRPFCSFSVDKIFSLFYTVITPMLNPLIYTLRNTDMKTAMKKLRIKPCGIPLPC
In short: as §1

OR4S1 (Homo sapiens) = biological target: T9, OR4S1 (Homo sapiens) (UniProt Q8NGB4)
T9 sequence (whole entry): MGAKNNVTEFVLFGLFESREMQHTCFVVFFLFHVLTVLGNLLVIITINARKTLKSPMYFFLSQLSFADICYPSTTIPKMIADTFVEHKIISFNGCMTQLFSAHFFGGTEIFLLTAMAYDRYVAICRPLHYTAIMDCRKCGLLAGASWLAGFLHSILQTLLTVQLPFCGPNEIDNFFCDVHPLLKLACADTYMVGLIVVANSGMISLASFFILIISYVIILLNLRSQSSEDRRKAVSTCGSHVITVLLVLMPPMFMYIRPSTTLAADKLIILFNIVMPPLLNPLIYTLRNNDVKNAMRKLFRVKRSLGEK
In short: as §1

OR4S2 (Homo sapiens) = biological target: T10, OR4S2 (Homo sapiens) (UniProt Q8NH73)
T10 sequence (whole entry): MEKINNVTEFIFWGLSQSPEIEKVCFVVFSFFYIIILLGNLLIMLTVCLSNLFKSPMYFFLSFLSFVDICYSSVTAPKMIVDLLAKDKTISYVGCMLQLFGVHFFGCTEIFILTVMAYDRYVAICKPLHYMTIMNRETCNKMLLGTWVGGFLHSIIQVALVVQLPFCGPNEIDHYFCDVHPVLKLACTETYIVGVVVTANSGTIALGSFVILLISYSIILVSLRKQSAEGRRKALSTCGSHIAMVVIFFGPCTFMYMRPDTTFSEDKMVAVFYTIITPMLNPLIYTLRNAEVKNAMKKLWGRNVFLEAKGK
In short: as §1

Measured: odorant receptor agonist call;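 also: active if original authors judged signal statistically different from baseline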

CS
inactive: all assays above

CCC(C)=O
inactive: all assays above

CCCCOC(C)=O
inactive: all assays above
